In patent US20060088847A1:
These are yes or no findings as the source states them, for the method shown. For some assays here: Binding seen in cells or lysates may run through a third protein. Some entries that bind do so weakly or less than the wild type.

Amino acid sequences for entries named in this document (tags omitted). A change or cut given only in a name is not applied to a line headed by its entry. Residues count along the entry.
UniProt P06748: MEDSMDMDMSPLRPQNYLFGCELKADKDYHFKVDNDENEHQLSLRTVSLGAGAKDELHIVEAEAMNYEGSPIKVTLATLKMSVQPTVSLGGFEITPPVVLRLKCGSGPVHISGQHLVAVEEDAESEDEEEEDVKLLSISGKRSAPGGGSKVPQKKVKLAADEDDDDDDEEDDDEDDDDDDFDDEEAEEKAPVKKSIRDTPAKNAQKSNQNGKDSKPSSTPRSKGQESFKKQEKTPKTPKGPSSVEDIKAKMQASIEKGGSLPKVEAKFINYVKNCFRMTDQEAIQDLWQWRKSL
UniProt Q8N726: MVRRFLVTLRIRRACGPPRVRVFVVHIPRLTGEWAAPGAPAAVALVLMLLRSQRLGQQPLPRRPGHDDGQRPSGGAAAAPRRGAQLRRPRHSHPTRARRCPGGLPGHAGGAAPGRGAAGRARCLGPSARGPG
GST-N-ARF, the N terminus of ARF protein (1-64): residues 1-64 of Q8N726

Assays:
[1] = target: endogenous ARF-BP1 (ARF-binding protein 1) (human) (UniProt Q7Z6Z7); assay: co-immunoprecipitation of endogenous proteins from H1299 cell extracts, Western blot
[2] = target: endogenous ARF-BP1 (ARF-binding protein 1) (human) (UniProt Q7Z6Z7); assay: co-immunoprecipitation with ARF-BP1-specific antibody, Western blot
[3] = target: FLAG-B23 (UniProt P06748); assay: co-immunoprecipitation with M2 beads from 293 cells transfected with Flag-B23, Western blot
[4] = target: endogenous ARF (human) (UniProt Q8N726); assay: co-immunoprecipitation with anti-ARF polyclonal antibody, Western blot
[5] = target: HA-ARF-Flag, double-tagged human ARF protein containing a N-terminal HA- and C-terminal FLAG epitope (human) (UniProt Q8N726); assay: tandem Flag/HA affinity purification from H1299 nuclear extract, SDS-PAGE, silver staining
[6] = target: endogenous p53 (human) (UniProt P04637); assay: co-immunoprecipitation with p53 monoclonal antibody DO-1, Western blot
[7] = target: endogenous p53 (human) (UniProt P04637); assay: co-immunoprecipitation of endogenous proteins from U2OS cell extracts, Western blot
[8] = target: endogenous ARF (human) (UniProt Q8N726); assay: co-immunoprecipitation of endogenous proteins from H1299 cell extracts, Western blot
[9] = target: FLAG-B23 (UniProt P06748); assay: immunoprecipitation with anti-FLAG M2 beads from FLAG-B23 cells, Western blot with anti-ARF-BP1 antibody
[10] = target: endogenous ARF-BP1 (ARF-binding protein 1) (human) (UniProt Q7Z6Z7); assay: co-immunoprecipitation of endogenous proteins from U2OS cell extracts, Western blot
[11] = target: endogenous ARF-BP1 (ARF-binding protein 1) (human) (UniProt Q7Z6Z7); assay: co-immunoprecipitation with anti-ARF-BP1 specific antibody, Western blot
[12] = target: GST-N-ARF, the N terminus of ARF protein (1-64) (UniProt Q8N726); assay: GST pull-down with 35S-labeled in vitro translated protein
[13] = target: GST-p53 protein (UniProt P04637); assay: as above
[14] = target: wild-type GST-ARF full-length protein (UniProt Q8N726); assay: as above

Measured: binding

endogenous ARF (from UniProt Q8N726 1-132)
binds: [1] | [2]

endogenous ARF-BP1 (ARF-binding protein 1) (from UniProt Q7Z6Z7 1-4374) (enzyme)
binds: [3] | [4] | [5] | [6] | [7] | [8] | [9]

endogenous p53 (from UniProt P04637 1-393)
binds: [10] | [11]

in vitro translated 35S-labeled ARF-BP1 (1015-4374) (from UniProt Q7Z6Z7 1015-4374) (enzyme)
binds: [12] | [13] | [14]
